According to paper PMC3330820:
No constants are given. Whether binding was seen depends on the method and setting. In cells and extracts the contact can be indirect. Some entries that bind do so weakly or less than the wild type. For part of these data: Where a sequence is shown, tags or fusion partners need not be part of it.

By UniProt entry, the sequences of proteins in these tests, tags left out. Where a name states a change or a piece, a line headed by the entry shows the natural chain unless it says otherwise.
UniProt P98170: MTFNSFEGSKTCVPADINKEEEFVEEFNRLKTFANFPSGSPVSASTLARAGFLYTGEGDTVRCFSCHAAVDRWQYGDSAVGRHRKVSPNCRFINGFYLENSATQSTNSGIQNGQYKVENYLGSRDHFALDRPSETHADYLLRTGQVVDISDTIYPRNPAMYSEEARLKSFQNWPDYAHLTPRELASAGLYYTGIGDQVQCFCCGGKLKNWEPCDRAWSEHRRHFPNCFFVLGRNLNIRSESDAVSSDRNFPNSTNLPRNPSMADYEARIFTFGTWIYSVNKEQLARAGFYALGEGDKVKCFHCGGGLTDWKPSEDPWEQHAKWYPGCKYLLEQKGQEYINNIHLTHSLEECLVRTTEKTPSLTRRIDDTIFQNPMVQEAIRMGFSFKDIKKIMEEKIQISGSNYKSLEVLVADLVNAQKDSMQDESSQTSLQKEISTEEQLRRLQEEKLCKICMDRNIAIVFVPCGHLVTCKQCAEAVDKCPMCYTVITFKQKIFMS

T1: GFP-RhoGDI (green fluorescent protein-tagged RhoGDI) (UniProt P52565)
T1 sequence: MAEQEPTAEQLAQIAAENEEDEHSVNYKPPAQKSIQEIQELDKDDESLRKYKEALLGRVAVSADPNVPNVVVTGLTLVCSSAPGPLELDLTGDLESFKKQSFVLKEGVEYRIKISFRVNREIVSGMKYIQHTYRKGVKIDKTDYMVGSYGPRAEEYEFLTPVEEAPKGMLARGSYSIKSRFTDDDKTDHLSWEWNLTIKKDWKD

B1: RhoGDI, endogenous (protein, UniProt P52565 1-204)
chain: T1 sequence

Assays:
[1] = target: T1, GFP-RhoGDI (green fluorescent protein-tagged RhoGDI); assay: co-IP; XIAP-/- HCT116 cells expressing GFP-RhoGDI with HA-XIAP constructs; immunoprecipitated with anti-GFP antibody-conjugated agarose beads, blotted for XIAP / HA
[2] = target: X-linked inhibitor of apoptosis protein (XIAP), endogenous (human (endogenous in HCT116)) (UniProt P98170); assay: co-IP; lysates of WT and XIAP-/- HCT116 cells immunoprecipitated with anti-XIAP (mouse) antibody or normal mouse IgG, blotted with anti-RhoGDI (rabbit); lysis buffer 1% Triton X-100, 150 mM NaCl, 10 mM Tris pH 7.4, 0.5% NP-40; 4°C

| Molecule | binding [1] | binding [2] |
| --- | --- | --- |
| HA-XIAP (full-length, HA-tagged XIAP) (from UniProt P98170 1-497) | binds |  |
| HA-XIAP H467A (from UniProt P98170 1-497) | binds |  |
| B1 |  | binds |
